In publication PMC10912303:
No constants are given. Whether binding was seen depends on the method and setting. In cells and extracts the contact can be indirect. A result given as binding can be weak or reduced; the word gives no strength.

Target: T1, TGFBR3 (human (endogenous in HGC27 and AGS)) (UniProt Q03167)
T1 sequence: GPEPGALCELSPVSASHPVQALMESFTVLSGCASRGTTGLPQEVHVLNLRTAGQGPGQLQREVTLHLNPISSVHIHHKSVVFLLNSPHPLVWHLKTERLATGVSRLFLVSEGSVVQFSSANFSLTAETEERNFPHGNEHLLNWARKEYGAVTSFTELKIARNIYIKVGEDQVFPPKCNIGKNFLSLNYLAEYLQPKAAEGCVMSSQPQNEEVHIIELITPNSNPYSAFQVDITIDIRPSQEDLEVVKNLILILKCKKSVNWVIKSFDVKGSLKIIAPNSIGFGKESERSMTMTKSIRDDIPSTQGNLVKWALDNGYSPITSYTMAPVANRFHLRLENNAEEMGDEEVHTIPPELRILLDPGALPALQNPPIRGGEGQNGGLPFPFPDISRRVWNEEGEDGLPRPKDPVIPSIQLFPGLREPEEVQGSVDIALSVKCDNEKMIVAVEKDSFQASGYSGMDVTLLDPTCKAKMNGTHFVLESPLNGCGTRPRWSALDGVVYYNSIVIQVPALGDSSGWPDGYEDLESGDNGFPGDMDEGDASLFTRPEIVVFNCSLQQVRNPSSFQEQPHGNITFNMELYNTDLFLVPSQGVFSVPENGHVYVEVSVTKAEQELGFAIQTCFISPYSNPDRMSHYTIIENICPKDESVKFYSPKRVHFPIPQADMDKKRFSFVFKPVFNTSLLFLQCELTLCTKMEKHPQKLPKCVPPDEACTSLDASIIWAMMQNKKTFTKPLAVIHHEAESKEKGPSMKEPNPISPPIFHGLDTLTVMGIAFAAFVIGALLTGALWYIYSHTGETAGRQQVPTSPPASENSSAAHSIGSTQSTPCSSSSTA
Assay: co-IP; lysates of HGC27 and AGS cells co-cultured with CAFs; primary antibody at 4 °C overnight, Protein A + G magnetic beads 1 h at room temperature, western blot

Human sulfatase 1 (SULF1) (enzyme)
binding: binds
